Reference: patent US20120283184A1 (published 2012)
No constants are given. Whether binding was seen depends on the method and setting.

By UniProt entry, the sequences of proteins in these tests, tags left out. Where a name states a change or a piece, a line headed by the entry shows the natural chain unless it says otherwise. Residues count along the entry.
UniProt P35918, residues 20-762: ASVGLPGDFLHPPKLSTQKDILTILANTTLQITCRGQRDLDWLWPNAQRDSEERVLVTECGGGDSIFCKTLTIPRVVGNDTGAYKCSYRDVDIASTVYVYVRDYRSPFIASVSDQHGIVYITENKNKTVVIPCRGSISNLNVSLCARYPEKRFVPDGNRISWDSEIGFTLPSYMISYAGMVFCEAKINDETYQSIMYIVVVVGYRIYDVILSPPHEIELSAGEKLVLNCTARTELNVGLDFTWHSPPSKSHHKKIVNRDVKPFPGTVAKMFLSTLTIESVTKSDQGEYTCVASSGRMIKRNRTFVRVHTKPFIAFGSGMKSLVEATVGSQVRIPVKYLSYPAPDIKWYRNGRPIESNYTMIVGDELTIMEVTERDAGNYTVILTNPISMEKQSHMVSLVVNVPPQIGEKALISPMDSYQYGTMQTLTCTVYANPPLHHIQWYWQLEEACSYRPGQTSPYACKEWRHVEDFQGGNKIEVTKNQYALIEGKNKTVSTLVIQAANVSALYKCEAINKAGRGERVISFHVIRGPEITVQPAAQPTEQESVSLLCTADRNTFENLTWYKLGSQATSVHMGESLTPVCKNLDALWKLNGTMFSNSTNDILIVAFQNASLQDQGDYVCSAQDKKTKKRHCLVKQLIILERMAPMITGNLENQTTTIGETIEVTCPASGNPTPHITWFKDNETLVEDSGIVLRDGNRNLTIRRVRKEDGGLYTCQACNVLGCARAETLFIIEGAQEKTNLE

Biological target: Flk-1-Fc (mouse vascular endothelial growth factor receptor-2 Fc chimera) (mouse) (UniProt P35918)
Assay: radioactive equilibrium binding assay with VEGFR-2-Fc chimeras (FIG. 4)

B1: VR28 (designed binder)
chain: VSDVPRDLEVVAATPTSLLISWRHPHFPTRYYRITYGETGGNSPVQEFTVPLQPPTATISGLKPGVDYTITGYAVTVAQNDHELITPISINYRT
- binding: no binding
